We go through 47 substances from patent US6329338A (Meiji Seika Kaisha, Ltd., priority 1995, dated 2001).

The first data set can be described thus: peptide synthesis. The note with it: coupling step.
Substance “Boc-MeLeu-Lac-MeLeu-(NH2 CO)PhLac-MeLeu-Lac-MeLeu-(NH2 CO)PhLac-OBn” showed a step yield of 63.1%.

For the substance “Boc-MeLeu-Lac-MeLeu-PhLac-MeLeu-Lac-MeLeu-(NH2 CO)PhLac-OBn”, the step yield is 82.2%.

The data set is the same for the next values; noted with them: cyclisation step.
Cyclo[MeLeu-Lac-MeLeu-(NH2 CO)PhLac]2 yielded a cyclisation yield of 65.4%.

In turn, “Cyclo[MeLeu-Lac-MeLeu-PhLac-MeLeu-Lac-MeLeu-(NH2 CO)PhLac]” yielded a cyclisation yield of 63.3%.

Staying with this data set, now noted: late stage modification step.
Boc-MeLeu-Lac-MeLeu-(NH2 CO)PhLac-OH: the step yield is listed as 99.1%.

Take “Cyclo[MeLeu-((CH3 OCH2 CH2)2 NCH2 CH2 O)PhLac-MeLeu-Lac-MeLeu-PhLac-MeLeu-Lac]”: the step yield was determined as 30.6%.

Substance “Cyclo[MeLeu-(MorCH2 CH2 O)PhLac-MeLeu-Lac-MeLeu-PhLac-MeLeu-Lac]” yielded a step yield of 41%.

In the case of “Cyclo[MeLeu-(p-Mor)PhLac-MeLeu-Lac-MeLeu-PhLac-MeLeu-Lac]”, the step yield worked out at 37%.

Substance “Cyclo[MeLeu-Lac-MeLeu((CH3)2 NCH2 CH2 O)PhLac-MeLeu-Lac-MeLeu-PhLac]” showed a step yield of 68.5%.

In turn, “Cyclo[MeLeu-Lac-MeLeu(Bu2 NCH2 CH2 O)PhLac-MeLeu-Lac-MeLeu-PhLac]” had a step yield of 44%.

The substance “Cyclo[MeLeu-Lac-MeLeu-(2-picolyloxy)PhLac-MeLeu-Lac-MeLeu-PhLac]” displayed a step yield of 76.5%.

“Cyclo[MeLeu-Lac-MeLeu-(2-picolyloxy)PhLac]2” returned a step yield of 50%.

In turn, “Cyclo[MeLeu-Lac-MeLeu-(3-(5-cyclohexyl-1,2,4-oxadiazolyl)-methoxy)PhLac-MeLeu-Lac-MeLeu-PhLac]” gave a step yield of 74%.

In the case of “Cyclo[MeLeu-Lac-MeLeu-(3-(5-cyclohexyl-1,2,4-oxadiazolyl)-methoxy)PhLac]. sub.2”, the step yield is recorded as 25%.

“Cyclo[MeLeu-Lac-MeLeu-(3-(5-isobutyl-1,2,4-oxadiazolyl)-methoxy)PhLac-MeLeu-Lac-MeLeu-PhLac]” came in with a step yield of 81%.

Regarding “Cyclo[MeLeu-Lac-MeLeu-(3-(5-isobutyl-1,2,4-oxadiazolyl)-methoxy)PhLac]2”, the step yield is listed as 72.8%.

For the substance “Cyclo[MeLeu-Lac-MeLeu-(3-(5-isopropyl-1,2,4-oxadiazolyl)-methoxy)PhLac-MeLeu-Lac-MeLeu-PhLac]”, the step yield was 71%.

Regarding “Cyclo[MeLeu-Lac-MeLeu-(3-(5-isopropyl-1,2,4-oxadiazolyl)-methoxy)PhLac]. sub.2”, the step yield was found to be 27.3%.

As to “Cyclo[MeLeu-Lac-MeLeu-(3-(5-methyl-1,2,4-oxadiazolyl)-methoxy)PhLac-MeLeu-Lac-MeLeu-PhLac]”, the step yield came out at 79%.

Regarding “Cyclo[MeLeu-Lac-MeLeu-(6-chloro-3-picolyloxy)PhLac-MeLeu-Lac-MeLeu-PhLac]”, the step yield was determined as 76%.

“Cyclo[MeLeu-Lac-MeLeu-((C2 H5)2 NCH2 CH2 CH2 O)PhLac-MeLeu-Lac-MeLeu-PhLac]” registered a step yield of 73%.

Take “Cyclo[MeLeu-Lac-MeLeu-((C2 H5)2 NCH2 CH2 O)PhLac-MeLeu-Lac-MeLeu-PhLac]”: the step yield turned out to be 66.7%.

“Cyclo[MeLeu-Lac-MeLeu-((C2 H5)N(Cbz)CH2 CH2 CH2 O)PhLac-MeLeu-Lac-MeLeu-PhLac]” gave a step yield of 77%.

“Cyclo[MeLeu-Lac-MeLeu-((CH3)2 NCH2 CH2 O)PhLac]2” yielded a step yield of 48%.

Substance “Cyclo[MeLeu-Lac-MeLeu-((CH3)2 NCH2 CH2 OCO)PhLac-MeLeu-Lac-MeLeu-PhLac]” displayed a step yield of 66.9%.

Take “Cyclo[MeLeu-Lac-MeLeu-((CH3)2 NCO)PhLac-MeLeu-Lac-MeLeu-PhLac]”: the step yield is 76.6%.

For “Cyclo[MeLeu-Lac-MeLeu-((S)-pyrrolidinyl-2-methoxy)PhLac-MeLeu-Lac-MeLeu-PhLac]”, the step yield is given as 51%.

“Cyclo[MeLeu-Lac-MeLeu-(BocNHCH2 CH2 O)PhLac-MeLeu-Lac-MeLeu-PhLac]” showed a step yield of 58.2%.

In the case of “Cyclo[MeLeu-Lac-MeLeu-(BocNHCH2 CH2 O)PhLac]2”, the step yield came out at 34%.

“Cyclo[MeLeu-Lac-MeLeu-(H2 N)PhLac-MeLeu-Lac-MeLeu-PhLac]” yielded a step yield of 39.4%.

In turn, “Cyclo[MeLeu-Lac-MeLeu-(MorCH2 CH2 OCO)PhLac-MeLeu-Lac-MeLeu-PhLac]” returned a step yield of 49.8%.

In turn, “Cyclo[MeLeu-Lac-MeLeu-(N-BOC-(S)-pyrrolidinyl-2-methoxy)PhLac-MeLeu-Lac-MeLeu-PhLac]” showed a step yield of 64.8%.

Substance “Cyclo[MeLeu-Lac-MeLeu-(N-Boc-imidazolyl-4-methoxy)PhLac-MeLeu-Lac-MeLeu-PhLac]” showed a step yield of 46.3%.

Take “Cyclo[MeLeu-Lac-MeLeu-(NCCH2 O)PhLac-MeLeu-Lac-MeLeu-PhLac]”: the step yield is on record as 94.4%.

“Cyclo[MeLeu-Lac-MeLeu-(O2 N)PhLac-MeLeu-Lac-MeLeu-PhLac]” displayed a step yield of 35.5%.

With “Cyclo[MeLeu-Lac-MeLeu-(PipCH2 CH2 O)PhLac-MeLeu-Lac-MeLeu-PhLac]”, the step yield worked out at 74%.

Consider “Cyclo[MeLeu-Lac-MeLeu-(Pr2 NCH2 CH2 O)PhLac-MeLeu-Lac-MeLeu-PhLac]”, for which the step yield came out at 54%.

In turn, “Cyclo[MeLeu-Lac-MeLeu-(PyrCH2 CH2 O)PhLac-MeLeu-Lac-MeLeu-PhLac]” displayed a step yield of 39%.

Regarding “Cyclo[MeLeu-Lac-MeLeu-(furfuryloxy)PhLac-MeLeu-Lac-MeLeu-PhLac]”, the step yield is on record as 50.6%.

On to “Cyclo[MeLeu-Lac-MeLeu-(imidazolyl-4-methoxy)PhLac-MeLeu-Lac-MeLeu-PhLac]”, for which the step yield came out at 61.2%.

Cyclo[MeLeu-Lac-MeLeu-(t-BuO)PhLac]2 returned a step yield of 35.7%.

The substance “Cyclo[MeLeu-Lac-MeLeu-(tetrahydrofurfuryloxy)PhLac-MeLeu-Lac-MeLeu-PhLac]” showed a step yield of 45.6%.

Substance “H-MeLeu-Lac-MeLeu-(NH2 CO)PhLac-MeLeu-Lac-MeLeu-(NH2 CO)-PhLac-OBn” displayed a step yield of 99%.

In turn, “H-MeLeu-Lac-MeLeu-(NH2 CO)PhLac-MeLeu-Lac-MeLeu-(NH2 CO)PhLac-OH” displayed a step yield of 95.9%.

Substance H-MeLeu-Lac-MeLeu-(NH2 CO)PhLac-OBn had a step yield of 97.9%.

In turn, “H-MeLeu-Lac-MeLeu-PhLac-MeLeu-Lac-MeLeu-(NH2 CO)PhLac-OBn” gave a step yield of 100%.

In the case of “H-MeLeu-Lac-MeLeu-PhLac-MeLeu-Lac-MeLeu-(NH2 CO)PhLac-OH”, the step yield came out at 93.0%.
